Laboratory results reported in PMC10577314 (Frontiers in Cell and Developmental Biology, 2023).
Results are given in words; binding and its absence hold for the method and conditions named. For part of these data: Sequences can lack the tags named with a protein.

The chains behind the UniProt entries cited, without tags or fusion partners. Where a name states a change or a piece, a line headed by the entry shows the natural chain unless it says otherwise. A line that says so, or that is headed by a name, gives the form on record, which may keep a tag or linker. Residues count along the entry.
MBP-His10-Sec8c (Q62824, residues 544-975): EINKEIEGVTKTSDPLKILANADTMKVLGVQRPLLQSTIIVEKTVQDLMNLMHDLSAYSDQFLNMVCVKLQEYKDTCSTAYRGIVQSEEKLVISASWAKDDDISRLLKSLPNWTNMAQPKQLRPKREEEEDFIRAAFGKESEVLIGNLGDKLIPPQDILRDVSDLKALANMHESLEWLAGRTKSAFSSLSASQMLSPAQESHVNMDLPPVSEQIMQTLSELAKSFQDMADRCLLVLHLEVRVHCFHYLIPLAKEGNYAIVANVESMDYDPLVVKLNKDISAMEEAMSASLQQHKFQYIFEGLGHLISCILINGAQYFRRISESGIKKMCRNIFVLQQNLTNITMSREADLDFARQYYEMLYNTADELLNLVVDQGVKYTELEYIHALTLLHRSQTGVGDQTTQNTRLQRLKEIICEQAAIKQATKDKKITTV
MBP-His10-Sec8c-Δ958–971 (Q62824, form named): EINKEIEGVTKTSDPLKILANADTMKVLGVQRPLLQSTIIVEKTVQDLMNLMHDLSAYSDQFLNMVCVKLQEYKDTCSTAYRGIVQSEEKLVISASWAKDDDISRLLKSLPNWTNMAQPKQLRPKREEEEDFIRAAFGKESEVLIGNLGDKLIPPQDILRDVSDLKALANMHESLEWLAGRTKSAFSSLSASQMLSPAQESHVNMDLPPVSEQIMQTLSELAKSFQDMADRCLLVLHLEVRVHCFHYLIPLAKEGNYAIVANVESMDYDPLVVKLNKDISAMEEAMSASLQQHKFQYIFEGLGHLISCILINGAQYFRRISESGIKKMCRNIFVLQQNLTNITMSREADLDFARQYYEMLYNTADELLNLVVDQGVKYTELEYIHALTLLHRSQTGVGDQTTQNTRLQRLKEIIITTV

Tests used:
[1] = molecular target: C-terminal half of Sec8 (Sec8c, aa544–975) (rat) (UniProt Q62824); test: SEC; Sec8c or Sec8c-Δ958–971 (1 mg/mL) mixed with SAP102 truncation at molar ratio 1:2, 4°C for 30 min; Superdex 200 Increase 10/300 GL; 20 mM HEPES pH 7.5, 100 mM NaCl, 1 mM DTT; peak fractions checked by SDS-PAGE; both purified
[2] = molecular target: C-terminal half of Sec8 (Sec8c, aa544–975) (rat) (UniProt Q62824); test: condition: 300 µM SAP102 in the syringe, 30 µM Sec8c in the cell; ITC; 300 µM SAP102 truncation in the syringe titrated into 30 µM Sec8c (or Sec8c-Δ958–971) in the cell; 20 mM HEPES pH 7.5, 100 mM NaCl, 1 mM DTT; one-set-of-sites model; control titration (protein to buffer) subtracted; both …
[3] = molecular target: MBP-His10-Sec8c (rat) (UniProt Q62824); test: pull-down; MBP-His10-Sec8c or MBP-His10-Sec8c-Δ958–971 (1 mg/mL) mixed with excess SAP102 truncation (molar ratio 1:2–5), held on amylose beads, 4°C for 1–2 h; 20 mM HEPES pH 7.5, 100 mM NaCl, 1 mM DTT, 1% glycerol; SDS-PAGE; MBP-His10 tag as negative control; both purified
[4] = molecular target: Sec8c-Δ958–971 (aa544–975/Δ958–971) (rat) (UniProt Q62824); test: condition: 300 µM SAP102 in the syringe, 30 µM Sec8c-Δ958–971 in the cell; ITC; 300 µM SAP102 truncation in the syringe titrated into 30 µM Sec8c (or Sec8c-Δ958–971) in the cell; 20 mM HEPES pH 7.5, 100 mM NaCl, 1 mM DTT; one-set-of-sites model; control titration (protein to buffer) subtracted; both purified
[5] = molecular target: MBP-His10-Sec8c-Δ958–971 (rat) (UniProt Q62824); test: SEC; Sec8c or Sec8c-Δ958–971 (1 mg/mL) mixed with SAP102 truncation at molar ratio 1:2, 4°C for 30 min; Superdex 200 Increase 10/300 GL; 20 mM HEPES pH 7.5, 100 mM NaCl, 1 mM DTT; peak fractions checked by SDS-PAGE; both purified
[6] = molecular target: MBP-His10-Sec8c-Δ958–971 (rat) (UniProt Q62824); test: pull-down; MBP-His10-Sec8c or MBP-His10-Sec8c-Δ958–971 (1 mg/mL) mixed with excess SAP102 truncation (molar ratio 1:2–5), held on amylose beads, 4°C for 1–2 h; 20 mM HEPES pH 7.5, 100 mM NaCl, 1 mM DTT, 1% glycerol; SDS-PAGE; MBP-His10 tag as negative control; both purified

binding [1] | binding [2] | binding [3] | Binder | further results
no binding | no binding |  | SAP102 PDZ3 (aa399–493) (domain or fragment, UniProt Q62936 399-493) TREPRKIILHKGSTGLGFNIVGGEDGEGIFVSFILAGGPADLSGELRRGDRILSVNGVNLRNATHEQAAAALKRAGQSVTIVAQYRPEEYSRFES | 
 |  | no binding | His6-SUMO-SAP102-PDZ3 (domain or fragment, UniProt Q62936 399-493) TREPRKIILHKGSTGLGFNIVGGEDGEGIFVSFILAGGPADLSGELRRGDRILSVNGVNLRNATHEQAAAALKRAGQSVTIVAQYRPEEYSRFES | 
no binding | no binding |  | SAP102 PDZ1 (aa144–236) (domain or fragment, UniProt Q62936 144-236) MFKYEEIVLERGNSGLGFSIAGGIDNPHVPDDPGIFITKIIPGGAAAMDGRLGVNDCVLRVNEVDVSEVVHSRAVEALKEAGPVVRLVVRRRQ | 
 |  | no binding | His6-SUMO-SAP102-PDZ1 (domain or fragment, UniProt Q62936 144-236) MFKYEEIVLERGNSGLGFSIAGGIDNPHVPDDPGIFITKIIPGGAAAMDGRLGVNDCVLRVNEVDVSEVVHSRAVEALKEAGPVVRLVVRRRQ | 
 |  |  | SAP102 PDZ1-PDZ2 (aa144–331) (domain or fragment, rat, UniProt Q62936 144-331, looked up, also called tandem PDZ1-PDZ2; source: E. coli BL21-DE3, purified (Ni-HiTrap HP, SENP2 cleavage, Superdex 200); not shown: His6-SUMO, N-terminal, cleaved) MFKYEEIVLERGNSGLGFSIAGGIDNPHVPDDPGIFITKIIPGGAAAMDGRLGVNDCVLRVNEVDVSEVVHSRAVEALKEAGPVVRLVVRRRQPPPETIMEVNLLKGPKGLGFSIAGGIGNQHIPGDNSIYITKIIEGGAAQKDGRLQIGDRLLAVNNTNLQDVRHEEAVASLKNTSDMVYLKVAKPG | binding [4]: no binding; binding [5]: no binding
 |  |  | His6-SUMO-SAP102-PDZ1-PDZ2 (domain or fragment, UniProt Q62936 144-331) MFKYEEIVLERGNSGLGFSIAGGIDNPHVPDDPGIFITKIIPGGAAAMDGRLGVNDCVLRVNEVDVSEVVHSRAVEALKEAGPVVRLVVRRRQPPPETIMEVNLLKGPKGLGFSIAGGIGNQHIPGDNSIYITKIIEGGAAQKDGRLQIGDRLLAVNNTNLQDVRHEEAVASLKNTSDMVYLKVAKPG | binding [6]: no binding
